At least one compound was matched to its structure with a doubt left.
Tests used:
α2-adrenergic = test: Receptor binding α2-adrenergic; conditions: radioligand [3H]-RX 821002; rat; read-out: Ki(nM) Compound 1
somatostatin = test: Receptor binding somatostatin; conditions: radioligand [125I]-somatostatin; mouse; read-out: Ki(nM) Compound 1
bombesin = test: Receptor binding bombesin; conditions: radioligand [125I]-bombesin; rat; read-out: Ki(nM) Compound 1
sigma = test: Receptor binding sigma; conditions: radioligand [3H]-DTG; rat; read-out: Ki(nM) Compound 1
melatonin = test: Receptor binding melatonin; conditions: radioligand [125I]-2-iodomelatonin; chicken; read-out: Ki(nM) Compound 1
Interleukine-8 = test: Receptor binding Interleukine-8; conditions: radioligand [125I]-interleukine-8; human; read-out: Ki(nM) Compound 1
benzodiazepine = test: Receptor binding benzodiazepine; conditions: radioligand [3H]-diazepam; rat; read-out: Ki(nM) Compound 1
tryptamine = test: Receptor binding tryptamine; conditions: radioligand [3H]-tryptamine; rat; read-out: Ki(nM) Compound 1
NMDA = test: Receptor binding NMDA; conditions: radioligand [3H]-CGS 19755; rat; read-out: Ki(nM) Compound 1
GDNF = test: Induction of growth factors: GDNF RNA in brain areas by quantitative PCR; assay type: in vivo; conditions: thalamus, striatum, prefrontal cortex, nucleus accumbens and hippocampus
Experimental: (§1) Compounds of the invention (3 mg/kg, p.o.) or vehicle are administered once daily during a period of 3 weeks (n=8 animals per treatment group). 24 hours after the last dose the animals are sacrificed (using CO2/O2 anesthesia), the brains are removed and the dissected. RNA is extracted from the individual brain samples and induction of the growth factors BDNF and GDNF is determined by quantitative PCR. Total RNA is isolated with the Trizol method (Invitrogen) from the brain pieces. cDNA is made starting with 2 μg of total RNA (pretreated for 30 min with DNAse (Ambion) in first strand buffer) using the reverse transcriptase Superscript II (Invitrogen). Quantification of […] by real time PCR makes use of the observation that the early cycles of PCR are characterized by an exponential increase in target amplification. The accumulation of PCR product is measured using Sybergreen II. Primers are designed using the software package Primer Express (Applied Biosystems). Expression levels of the housekeeping genes ornithine decarboxylase (ODC_ex8) and alpha tubulin (TUBA) used for normalization and as control for good cDNA synthesis.

melanocortin = test: Receptor binding melanocortin; conditions: radioligand [125I]-NDP-a-MSH; human; read-out: Ki(nM) Compound 1
K+-channel [1] = biological target: T1, K+-channel; test: Binding K+-channel ([125I]-α-dendrotoxin); conditions: radioligand [125I]-α-dendrotoxin; rat; read-out: Ki(nM) Compound 1
T1 construct: rows headed: Ki(nM) Compound 1; other: radioligand [125I]-α-dendrotoxin; rat

Tumor necrosis f. = test: Receptor binding Tumor necrosis f.; conditions: radioligand [125I]-TNFα; rat; read-out: Ki(nM) Compound 1
Na+-channel = test: Binding Na+-channel; conditions: radioligand [3H]-bathrachotoxinin; rat; read-out: Ki(nM) Compound 1
K+-channel [2] = biological target: T2, K+-channel; test: Binding K+-channel ([125I]-apamin); conditions: radioligand [125I]-apamin; rat; read-out: Ki(nM) Compound 1
T2 construct: rows headed: Ki(nM) Compound 1; other: radioligand [125I]-apamin; rat

DBA/2 mice [3] = test: Anticonvulsant activity: audiogenic seizures in DBA/2 mice; assay type: in vivo
From the text: DBA/2 mice weighing 6-12 g (22-26 days old; either sex, Harlan Italy Correzzana, Milano, Italy) are housed in groups of 8-10 under a 12-h light/dark cycle (lights on at 7:00 a.m.) with food and water available ad libitum. The experimental protocol is approved by University of Catanzaro Ethical Committee. All procedures are in compliance with the Nationals Institutes of Health Guide for Care and Use of Laboratory Animals (Publication No. 85-23, revised 1985) and European Communities Council Directive of 24 Nov. 1986 (86/609 EEC).
The experiments are performed according to the method previously described by De Sarro et al. (1984), Eur. J. Pharmacol., 104, 55-60. Compounds of the invention or vehicle (controls) are given intraperitoneally (i.p.) and orally (p.o.) as freshly sonicated solutions in methylcellulose 1%. For the […]; pretreatment time at 30 and 60 min., For oral treatment, all animals are pretreated either at 30 or 60 min using the compounds of the invention at doses of 0.1, 0.3, 3, 6 and 10 mg/kg p.o. At least 10 mice per dose are used. After pretreatment time, each mouse is placed under a hemispheric perspex dome (58 cm in diameter) and 1 min is allowed for habituation and assessment of locomotor activity. Animals are challenged with a 12-16 kHz sinusoidal tone at 109 dB. Seizure response is assessed by two independent observers. The sound evoked behaviour is coded using the following scale: 0=no response, 1=wild running, 2=clonus, 3=tonic flexor and/or extensor; 4=respiratory arrest, on the basis of the concordant opinion of the observers. […] The maximum response is recorded for each animal. Rectal temperature is recorded immediately prior to auditory testing using an Elektrolaboratoriet thermometer type T.E.3. Behavioral changes are observed during the period between drug administration and auditory testing. In these experiments separate vehicle-treated and drug-treated groups are used at each pretreatment time (15 min-60 min). Percentage of mice showing wild running, clonic or tonic phase and the duration of anticonvulsant activity are compared to control group and statistically analyzed.
Statistical comparison between groups of control and drug-treated DBA/2 mice is made using Fisher's exact probability test (incidence of the seizure phases). The percentage incidence of each phase of the audiogenic seizure is determined for each drug. These values are plotted against the corresponding doses by a computer construction of the dose-effect curves for calculation of ED50 (with 95% confidence limits). The ED50 values for each compound are calculated using a computer program of the method of Litchfield and Wilcoxon (1949). At least 32 animals are used to calculate each ED50 value.
For systemic injections and oral administrations, all compounds are given intraperitoneally (0.1 ml/10 g of body weight of the mouse) as a freshly prepared solution in methylcellulose 1%. In order to avoid the light sensitivity, weighing and handling are carried out under sodium vapor lamps and the substances are protected from light during the experiments.

GABAA = test: Receptor binding GABAA; conditions: radioligand [3H]-muscimol; rat; read-out: Ki(nM) Compound 1
BDNF = test: Induction of growth factors: BDNF RNA in brain areas by quantitative PCR; assay type: in vivo; conditions: thalamus, striatum, prefrontal cortex, nucleus accumbens and hippocampus
Experimental: as §1

α1-adrenergic = test: Receptor binding α1-adrenergic; conditions: radioligand [3H]-prazosin; rat; read-out: Ki(nM) Compound 1
DBA/2 mice [4] = test: Interaction studies in DBA/2 mice: Compound 1 + vehicle, sumatriptan or SB 258741 (audiogenic seizures); assay type: in vivo; conditions: 30 min after i.p. administration
Experimental: The experiments are performed according to the method previously described by De Sarro et al. (1984), Eur. J. Pharmacol., 104, 55-60. Compounds of the invention or vehicle (controls) are given intraperitoneally (i.p.) and orally (p.o.) as freshly sonicated solutions in methylcellulose 1%. For the i.p. treatment compounds of the invention are given at doses of 0.1, 0.3, 3, 10, 15, 20 and 30 mg/kg; pretreatment time at 30 and 60 min., For oral treatment, all animals are pretreated either at 30 or 60 min using the compounds of the invention at doses of 0.1, 0.3, 3, 6 and 10 mg/kg p.o. At least 10 mice per dose are used. After pretreatment time, each mouse is placed under a hemispheric perspex dome (58 cm in diameter) and 1 min is allowed for habituation and assessment of locomotor activity. Animals are challenged with a 12-16 kHz sinusoidal tone at 109 dB. Seizure response is assessed by two independent observers. The sound evoked behaviour is coded using the following scale: 0=no response, 1=wild running, 2=clonus, 3=tonic flexor and/or extensor; 4=respiratory arrest, on the basis of the concordant opinion of the observers. […] The maximum response is recorded for each animal. Rectal temperature is recorded immediately prior to auditory testing using an Elektrolaboratoriet thermometer type T.E.3. Behavioral changes are observed during the period between drug administration and auditory testing. In these experiments separate vehicle-treated and drug-treated groups are used at each pretreatment time (15 min-60 min). Percentage of mice showing wild running, clonic or tonic phase and the duration of anticonvulsant activity are compared to control group and statistically analyzed.

TRH = test: Receptor binding TRH; conditions: radioligand [3H]-TRH; rat; read-out: Ki(nM) Compound 1

Which Ki (α2-adrenergic) does the source give for `Nc1cc2cccc(N3CCNCC3)c2oc1=O` [Compound 1, 3-amino-8-(1-piperazinyl)-2H-1-benzopyran-2-one] here?
The Ki was > 1000 nM.

What about the Ki (somatostatin) of the same molecule?
The Ki was > 1000 nM.

And the Ki (bombesin)?
Its Ki is > 1000 nM.

What about the Ki (sigma) of the same molecule?
The Ki was > 1000 nM.

What about the Ki (melatonin) of the same molecule?
The Ki was > 10000 nM.

And the Ki (Interleukine-8)?
Its Ki is > 1000 nM.

What about the Ki (benzodiazepine) of the same molecule?
The Ki was > 10000 nM.

And the Ki (tryptamine)?
The Ki was > 10000 nM.

And the Ki (NMDA)?
Its Ki is > 10000 nM.

What about the “GDNF RNA levels” value (GDNF) of the same molecule?
Its value is “increased”.

And the Ki (melanocortin)?
The Ki was > 1000 nM.

What about the Ki (K+-channel [1]) of the same molecule?
The Ki was > 1000 nM.

And the Ki (Tumor necrosis f.)?
Its Ki is > 1000 nM.

What about the Ki (Na+-channel) of the same molecule?
Its Ki is > 10000 nM.

And the Ki (K+-channel [2])?
The Ki was > 1000 nM.

What about the “effect on tonic and clonic phase of audiogenic seizures” value (“effect on tonic and clonic phase” for short) (DBA/2 mice [3]; 30 min after i.p. administration, 3 mg/kg) of the same molecule?
The value was “only able to significantly antagonize the tonic phase”.

What about the “effect on tonic and clonic phase” value (DBA/2 mice [3]; 30 min after i.p. administration, 10, 15, 20 and 30 mg/kg) of the same molecule?
The value was “significantly antagonized”.

What about the “effect on tonic and clonic phase” value (DBA/2 mice [3]; 30 min after oral administration, 3 mg/kg) of the same molecule?
The value was “only able to significantly antagonize the tonic phase”.

And the “effect on tonic and clonic phase” value (DBA/2 mice [3]; 30 min after oral administration, 6 and 10 mg/kg)?
The value was “significantly antagonized”.

And the “effect on tonic and clonic phase” value (DBA/2 mice [3]; 60 min after i.p. administration, 3 and 0.3 mg/kg)?
Its value is “only able to significantly antagonize the tonic phase”.

What about the “effect on tonic and clonic phase” value (DBA/2 mice [3]; 60 min after i.p. administration, 10, 15, 20 and 30 mg/kg) of the same molecule?
The value was “significantly antagonized”.

And the “effect on tonic and clonic phase” value (DBA/2 mice [3]; 60 min after oral administration, 0.3 mg/kg)?
Its value is “only able to significantly antagonize the tonic phase”.

And the “effect on tonic and clonic phase” value (DBA/2 mice [3]; 60 min after oral administration, 3, 6 and 10 mg/kg)?
The value was “significantly antagonized”.

And the “potency in the test for anti-epileptic activity relative to flesinoxan and 8-OH-DPAT” value (DBA/2 mice [3]; from ED50 values)?
Its value is “at least ten times more potent”.

What about the Ki (GABAA) of the same molecule?
The Ki was > 10000 nM.

What about the “BDNF RNA levels” value (BDNF) of the same molecule?
Its value is “increased”.

And the Ki (α1-adrenergic)?
Its Ki is > 1000 nM.

What about the “effect on occurrence of tonic and/or clonic seizures” value (DBA/2 mice [4]; 0.3 mg/kg) of the same molecule?
Its value is “not able to significantly modify”.

What about the “effect on tonic and clonic phase” value (DBA/2 mice [4]; 3 mg/kg) of the same molecule?
Its value is “only able to significantly (P<0.01) antagonize the tonic phase”.

And the “effect on tonic and clonic phase” value (DBA/2 mice [4]; 10, 15 and 20 mg/kg)?
The value was “significantly (P<0.01) antagonized”.

What about the Ki (TRH) of the same molecule?
Its Ki is > 10000 nM.
